The text below walks through data of article PMC10904832.

By UniProt entry, the sequences of proteins in these tests, tags left out.
UniProt Q14643: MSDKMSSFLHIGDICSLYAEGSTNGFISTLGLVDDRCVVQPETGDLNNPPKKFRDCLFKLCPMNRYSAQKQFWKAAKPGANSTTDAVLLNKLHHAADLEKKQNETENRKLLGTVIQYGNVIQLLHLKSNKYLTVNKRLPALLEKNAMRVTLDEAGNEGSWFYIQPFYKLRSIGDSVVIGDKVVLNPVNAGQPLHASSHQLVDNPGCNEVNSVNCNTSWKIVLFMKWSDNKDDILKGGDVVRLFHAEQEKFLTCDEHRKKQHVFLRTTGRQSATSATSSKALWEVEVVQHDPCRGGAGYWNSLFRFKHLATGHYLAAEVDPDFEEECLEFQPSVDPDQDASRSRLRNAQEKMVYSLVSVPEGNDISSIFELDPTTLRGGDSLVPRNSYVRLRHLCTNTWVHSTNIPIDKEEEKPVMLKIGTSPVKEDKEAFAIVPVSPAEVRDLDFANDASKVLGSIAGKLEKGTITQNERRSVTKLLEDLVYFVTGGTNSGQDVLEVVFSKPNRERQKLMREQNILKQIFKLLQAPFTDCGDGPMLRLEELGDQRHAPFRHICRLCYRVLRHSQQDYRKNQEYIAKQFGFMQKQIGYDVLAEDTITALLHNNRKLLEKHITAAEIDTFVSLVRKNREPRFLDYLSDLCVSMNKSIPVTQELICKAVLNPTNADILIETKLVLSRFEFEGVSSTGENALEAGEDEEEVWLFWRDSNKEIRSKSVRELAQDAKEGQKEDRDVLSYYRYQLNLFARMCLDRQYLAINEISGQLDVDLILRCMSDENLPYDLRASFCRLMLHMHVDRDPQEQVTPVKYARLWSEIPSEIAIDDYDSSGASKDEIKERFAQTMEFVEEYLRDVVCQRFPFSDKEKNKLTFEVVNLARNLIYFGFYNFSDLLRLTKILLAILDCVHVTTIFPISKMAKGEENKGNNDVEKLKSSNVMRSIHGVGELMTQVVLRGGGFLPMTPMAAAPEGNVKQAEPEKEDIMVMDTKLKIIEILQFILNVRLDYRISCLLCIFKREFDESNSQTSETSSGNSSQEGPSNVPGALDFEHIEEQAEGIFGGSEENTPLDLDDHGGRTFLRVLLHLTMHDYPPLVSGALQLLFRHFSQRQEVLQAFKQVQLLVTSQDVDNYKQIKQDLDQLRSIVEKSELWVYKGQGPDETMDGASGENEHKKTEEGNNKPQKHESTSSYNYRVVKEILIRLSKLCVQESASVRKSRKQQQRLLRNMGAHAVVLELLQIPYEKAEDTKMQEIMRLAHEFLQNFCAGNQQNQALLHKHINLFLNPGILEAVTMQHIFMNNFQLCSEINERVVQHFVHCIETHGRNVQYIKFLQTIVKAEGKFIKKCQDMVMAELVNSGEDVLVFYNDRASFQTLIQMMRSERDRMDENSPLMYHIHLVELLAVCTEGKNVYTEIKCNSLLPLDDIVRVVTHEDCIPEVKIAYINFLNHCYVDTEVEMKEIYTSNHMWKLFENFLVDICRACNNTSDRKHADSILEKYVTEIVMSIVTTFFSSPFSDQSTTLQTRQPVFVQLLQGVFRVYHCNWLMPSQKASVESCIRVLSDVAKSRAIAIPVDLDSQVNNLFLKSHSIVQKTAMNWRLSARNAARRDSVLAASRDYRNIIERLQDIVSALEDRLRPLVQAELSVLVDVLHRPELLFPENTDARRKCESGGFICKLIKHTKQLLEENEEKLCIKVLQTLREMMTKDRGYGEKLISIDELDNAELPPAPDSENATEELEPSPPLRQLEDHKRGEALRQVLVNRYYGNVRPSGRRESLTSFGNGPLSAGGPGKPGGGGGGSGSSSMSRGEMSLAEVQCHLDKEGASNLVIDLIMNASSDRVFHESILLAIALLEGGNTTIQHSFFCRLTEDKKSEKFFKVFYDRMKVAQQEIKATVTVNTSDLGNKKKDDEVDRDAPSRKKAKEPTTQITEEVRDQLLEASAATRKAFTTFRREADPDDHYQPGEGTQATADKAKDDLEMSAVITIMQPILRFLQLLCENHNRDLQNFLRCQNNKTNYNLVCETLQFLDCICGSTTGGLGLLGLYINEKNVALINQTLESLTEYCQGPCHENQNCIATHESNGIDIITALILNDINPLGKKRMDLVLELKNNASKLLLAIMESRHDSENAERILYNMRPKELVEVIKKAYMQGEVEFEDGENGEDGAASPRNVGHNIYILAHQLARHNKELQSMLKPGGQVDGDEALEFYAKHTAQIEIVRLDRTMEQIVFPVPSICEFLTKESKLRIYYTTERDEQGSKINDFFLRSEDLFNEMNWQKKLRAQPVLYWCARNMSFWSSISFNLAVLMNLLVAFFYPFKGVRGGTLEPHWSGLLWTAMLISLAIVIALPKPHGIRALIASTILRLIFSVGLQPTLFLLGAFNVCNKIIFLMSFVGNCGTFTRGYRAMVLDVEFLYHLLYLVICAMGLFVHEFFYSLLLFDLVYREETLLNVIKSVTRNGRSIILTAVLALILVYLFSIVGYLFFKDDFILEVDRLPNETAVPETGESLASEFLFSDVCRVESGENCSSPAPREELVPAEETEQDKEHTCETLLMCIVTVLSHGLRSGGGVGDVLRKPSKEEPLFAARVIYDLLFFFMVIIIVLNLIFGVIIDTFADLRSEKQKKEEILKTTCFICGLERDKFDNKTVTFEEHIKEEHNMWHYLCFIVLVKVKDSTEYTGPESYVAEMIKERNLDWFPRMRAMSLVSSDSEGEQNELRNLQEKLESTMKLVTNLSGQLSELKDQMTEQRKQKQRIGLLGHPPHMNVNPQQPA
UniProt P21796: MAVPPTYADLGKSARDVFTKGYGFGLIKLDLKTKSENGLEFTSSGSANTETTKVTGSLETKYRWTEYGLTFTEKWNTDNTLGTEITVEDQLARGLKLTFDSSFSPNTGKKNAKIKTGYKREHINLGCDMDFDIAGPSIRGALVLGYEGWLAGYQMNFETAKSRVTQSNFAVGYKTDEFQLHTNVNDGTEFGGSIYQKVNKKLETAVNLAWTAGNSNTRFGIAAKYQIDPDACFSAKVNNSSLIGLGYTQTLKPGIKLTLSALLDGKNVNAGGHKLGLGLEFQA

Results are given in words; binding and its absence hold for the method and conditions named. Binding seen in cells or lysates may run through a third protein. Some binding calls cover weakened binding; strength is not graded here.

In the test the target is inositol 1,4,5-triphosphate receptor (IP3R1) (human (endogenous in HeLa)) (UniProt Q14643). The experiment in a line: proximity ligation; Duolink in situ PLA in fixed (4% paraformaldehyde), permeabilised (0.2% Triton X-100) HeLa cells, with and without CCCP for 3 h; endogenous proteins detected with pairs of primary antibodies; PLA dots per cell counted.

In the case of VDAC1 (from UniProt P21796 1-283), the binding result is on record as “binds”.
